This experiment has as its target Flag-Hif1a, Q16665. In words: co-IP; 293T cells co-transfected with Flag-Hif1a and HA-Nrf2; Co-IP with Flag and HA antibodies. The note with it: remark: other sources report otherwise.

These are yes or no findings as the source states them, for the method shown. Binding seen in cells or lysates may run through a third protein. Some entries that bind do so weakly or less than the wild type. Sequences can lack the tags named with a protein.

B1: HA-Nrf2, Q16236 1-605 (protein)
chain: MMDLELPPPGLPSQQDMDLIDILWRQDIDLGVSREVFDFSQRRKEYELEKQKKLEKERQEQLQKEQEKAFFAQLQLDEETGEFLPIQPAQHIQSETSGSANYSQVAHIPKSDALYFDDCMQLLAQTFPFVDDNEVSSATFQSLVPDIPGHIESPVFIATNQAQSPETSVAQVAPVDLDGMQQDIEQVWEELLSIPELQCLNIENDKLVETTMVPSPEAKLTEVDNYHFYSSIPSMEKEVGNCSPHFLNAFEDSFSSILSTEDPNQLTVNSLNSDATVNTDFGDEFYSAFIAEPSISNSMPSPATLSHSLSELLNGPIDVSDLSLCKAFNQNHPESTAEFNDSDSGISLNTSPSVASPEHSVESSSYGDTLLGLSDSEVEELDSAPGSVKQNGPKTPVHSSGDMVQPLSPSQGQSTHVHDAQCENTPEKELPVSPGHRKTPFTKDKHSSRLEAHLTRDELRAKALHIPFPVEKIINLPVVDFNEMMSKEQFNEAQLALIRDIRRRGKNKVAAQNCRKRKLENIVELEQDLDHLKDEKEKLLKEKGENDKSLHLLKKQLSTLYLEVFSMLRDEDGKPYSPSEYSLQQTRDGNVFLVPKSKKPDVKKN
In the case of B1, the binding result is listed as “binds”.

Source of the values: publication PMC12224949.
